# Laboratory results published in the supplement of paper PMC10849652.
# Amino acid sequences for entries named in this document (tags omitted). A change or cut given only in a name is not applied to a line headed by its entry.
# UniProt Q9BQD3: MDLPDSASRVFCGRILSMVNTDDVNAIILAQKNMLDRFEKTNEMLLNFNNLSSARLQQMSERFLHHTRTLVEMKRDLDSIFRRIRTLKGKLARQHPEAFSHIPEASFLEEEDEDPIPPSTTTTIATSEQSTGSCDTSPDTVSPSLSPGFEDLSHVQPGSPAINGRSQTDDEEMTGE
# UniProt O15243: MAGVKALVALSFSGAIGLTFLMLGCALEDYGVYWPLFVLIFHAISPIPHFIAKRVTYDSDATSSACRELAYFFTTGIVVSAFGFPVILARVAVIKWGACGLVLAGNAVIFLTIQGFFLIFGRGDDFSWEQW
# UniProt Q6P1M3: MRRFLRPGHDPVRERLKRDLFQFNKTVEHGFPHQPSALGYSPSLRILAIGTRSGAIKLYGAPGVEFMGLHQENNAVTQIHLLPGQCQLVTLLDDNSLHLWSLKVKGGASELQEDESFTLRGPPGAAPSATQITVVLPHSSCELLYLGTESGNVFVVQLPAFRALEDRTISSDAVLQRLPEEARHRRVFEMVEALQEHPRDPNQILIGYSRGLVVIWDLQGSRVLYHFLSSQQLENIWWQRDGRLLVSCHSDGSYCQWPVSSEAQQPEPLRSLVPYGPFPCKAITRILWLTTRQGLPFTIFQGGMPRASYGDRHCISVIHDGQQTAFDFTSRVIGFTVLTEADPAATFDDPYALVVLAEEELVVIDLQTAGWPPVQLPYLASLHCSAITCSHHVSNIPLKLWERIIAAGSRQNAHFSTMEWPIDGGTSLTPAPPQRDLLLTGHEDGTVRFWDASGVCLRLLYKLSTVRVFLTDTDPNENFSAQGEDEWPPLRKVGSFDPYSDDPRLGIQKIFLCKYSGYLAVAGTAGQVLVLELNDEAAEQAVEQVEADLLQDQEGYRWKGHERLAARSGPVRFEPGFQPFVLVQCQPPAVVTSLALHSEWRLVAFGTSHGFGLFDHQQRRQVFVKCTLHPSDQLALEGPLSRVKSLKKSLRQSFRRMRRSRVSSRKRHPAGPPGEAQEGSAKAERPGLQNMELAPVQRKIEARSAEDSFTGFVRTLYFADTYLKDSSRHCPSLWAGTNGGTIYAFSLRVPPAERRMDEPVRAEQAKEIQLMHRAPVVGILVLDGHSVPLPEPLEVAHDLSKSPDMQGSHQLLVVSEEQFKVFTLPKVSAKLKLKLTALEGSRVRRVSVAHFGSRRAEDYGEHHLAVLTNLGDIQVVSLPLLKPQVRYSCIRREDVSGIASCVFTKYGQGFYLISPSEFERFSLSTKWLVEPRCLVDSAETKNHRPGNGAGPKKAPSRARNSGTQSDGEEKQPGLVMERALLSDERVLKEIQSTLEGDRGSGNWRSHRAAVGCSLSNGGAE
# UniProt Q86VI4: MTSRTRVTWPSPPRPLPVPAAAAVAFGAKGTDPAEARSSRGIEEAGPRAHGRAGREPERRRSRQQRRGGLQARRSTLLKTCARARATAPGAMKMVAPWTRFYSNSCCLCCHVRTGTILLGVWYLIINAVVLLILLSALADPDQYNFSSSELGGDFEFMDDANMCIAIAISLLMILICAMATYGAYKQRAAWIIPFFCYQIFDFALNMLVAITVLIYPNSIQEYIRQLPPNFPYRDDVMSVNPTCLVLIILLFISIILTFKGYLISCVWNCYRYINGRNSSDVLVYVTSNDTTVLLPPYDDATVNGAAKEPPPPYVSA
# UniProt P61968: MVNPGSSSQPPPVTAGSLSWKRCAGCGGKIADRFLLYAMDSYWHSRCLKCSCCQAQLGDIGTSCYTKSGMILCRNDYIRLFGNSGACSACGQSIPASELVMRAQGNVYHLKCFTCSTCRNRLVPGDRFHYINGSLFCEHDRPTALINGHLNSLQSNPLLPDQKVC
# UniProt Q15048: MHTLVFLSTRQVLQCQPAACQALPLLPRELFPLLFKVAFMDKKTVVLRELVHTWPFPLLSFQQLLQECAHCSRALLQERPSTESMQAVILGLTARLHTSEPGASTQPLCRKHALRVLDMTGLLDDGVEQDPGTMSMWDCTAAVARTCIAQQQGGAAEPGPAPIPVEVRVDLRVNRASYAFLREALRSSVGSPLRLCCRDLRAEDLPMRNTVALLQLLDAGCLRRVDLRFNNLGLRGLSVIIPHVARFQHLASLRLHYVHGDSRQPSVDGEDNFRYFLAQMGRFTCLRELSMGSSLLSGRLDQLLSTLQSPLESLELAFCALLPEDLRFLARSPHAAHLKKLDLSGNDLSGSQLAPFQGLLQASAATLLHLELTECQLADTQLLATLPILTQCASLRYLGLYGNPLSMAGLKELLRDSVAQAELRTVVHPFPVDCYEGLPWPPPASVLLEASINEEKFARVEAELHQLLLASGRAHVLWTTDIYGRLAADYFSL
# UniProt P28300: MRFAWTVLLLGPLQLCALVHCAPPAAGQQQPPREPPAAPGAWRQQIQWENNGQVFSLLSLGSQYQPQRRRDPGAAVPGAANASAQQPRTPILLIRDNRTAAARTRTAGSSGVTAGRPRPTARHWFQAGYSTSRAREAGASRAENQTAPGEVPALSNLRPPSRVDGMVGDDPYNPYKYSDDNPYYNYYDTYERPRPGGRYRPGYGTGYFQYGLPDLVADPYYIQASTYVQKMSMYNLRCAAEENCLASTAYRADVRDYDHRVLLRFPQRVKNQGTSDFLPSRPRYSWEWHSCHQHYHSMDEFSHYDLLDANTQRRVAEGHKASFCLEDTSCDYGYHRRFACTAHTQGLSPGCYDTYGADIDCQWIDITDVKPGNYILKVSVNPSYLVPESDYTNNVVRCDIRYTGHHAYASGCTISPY
# UniProt P24043: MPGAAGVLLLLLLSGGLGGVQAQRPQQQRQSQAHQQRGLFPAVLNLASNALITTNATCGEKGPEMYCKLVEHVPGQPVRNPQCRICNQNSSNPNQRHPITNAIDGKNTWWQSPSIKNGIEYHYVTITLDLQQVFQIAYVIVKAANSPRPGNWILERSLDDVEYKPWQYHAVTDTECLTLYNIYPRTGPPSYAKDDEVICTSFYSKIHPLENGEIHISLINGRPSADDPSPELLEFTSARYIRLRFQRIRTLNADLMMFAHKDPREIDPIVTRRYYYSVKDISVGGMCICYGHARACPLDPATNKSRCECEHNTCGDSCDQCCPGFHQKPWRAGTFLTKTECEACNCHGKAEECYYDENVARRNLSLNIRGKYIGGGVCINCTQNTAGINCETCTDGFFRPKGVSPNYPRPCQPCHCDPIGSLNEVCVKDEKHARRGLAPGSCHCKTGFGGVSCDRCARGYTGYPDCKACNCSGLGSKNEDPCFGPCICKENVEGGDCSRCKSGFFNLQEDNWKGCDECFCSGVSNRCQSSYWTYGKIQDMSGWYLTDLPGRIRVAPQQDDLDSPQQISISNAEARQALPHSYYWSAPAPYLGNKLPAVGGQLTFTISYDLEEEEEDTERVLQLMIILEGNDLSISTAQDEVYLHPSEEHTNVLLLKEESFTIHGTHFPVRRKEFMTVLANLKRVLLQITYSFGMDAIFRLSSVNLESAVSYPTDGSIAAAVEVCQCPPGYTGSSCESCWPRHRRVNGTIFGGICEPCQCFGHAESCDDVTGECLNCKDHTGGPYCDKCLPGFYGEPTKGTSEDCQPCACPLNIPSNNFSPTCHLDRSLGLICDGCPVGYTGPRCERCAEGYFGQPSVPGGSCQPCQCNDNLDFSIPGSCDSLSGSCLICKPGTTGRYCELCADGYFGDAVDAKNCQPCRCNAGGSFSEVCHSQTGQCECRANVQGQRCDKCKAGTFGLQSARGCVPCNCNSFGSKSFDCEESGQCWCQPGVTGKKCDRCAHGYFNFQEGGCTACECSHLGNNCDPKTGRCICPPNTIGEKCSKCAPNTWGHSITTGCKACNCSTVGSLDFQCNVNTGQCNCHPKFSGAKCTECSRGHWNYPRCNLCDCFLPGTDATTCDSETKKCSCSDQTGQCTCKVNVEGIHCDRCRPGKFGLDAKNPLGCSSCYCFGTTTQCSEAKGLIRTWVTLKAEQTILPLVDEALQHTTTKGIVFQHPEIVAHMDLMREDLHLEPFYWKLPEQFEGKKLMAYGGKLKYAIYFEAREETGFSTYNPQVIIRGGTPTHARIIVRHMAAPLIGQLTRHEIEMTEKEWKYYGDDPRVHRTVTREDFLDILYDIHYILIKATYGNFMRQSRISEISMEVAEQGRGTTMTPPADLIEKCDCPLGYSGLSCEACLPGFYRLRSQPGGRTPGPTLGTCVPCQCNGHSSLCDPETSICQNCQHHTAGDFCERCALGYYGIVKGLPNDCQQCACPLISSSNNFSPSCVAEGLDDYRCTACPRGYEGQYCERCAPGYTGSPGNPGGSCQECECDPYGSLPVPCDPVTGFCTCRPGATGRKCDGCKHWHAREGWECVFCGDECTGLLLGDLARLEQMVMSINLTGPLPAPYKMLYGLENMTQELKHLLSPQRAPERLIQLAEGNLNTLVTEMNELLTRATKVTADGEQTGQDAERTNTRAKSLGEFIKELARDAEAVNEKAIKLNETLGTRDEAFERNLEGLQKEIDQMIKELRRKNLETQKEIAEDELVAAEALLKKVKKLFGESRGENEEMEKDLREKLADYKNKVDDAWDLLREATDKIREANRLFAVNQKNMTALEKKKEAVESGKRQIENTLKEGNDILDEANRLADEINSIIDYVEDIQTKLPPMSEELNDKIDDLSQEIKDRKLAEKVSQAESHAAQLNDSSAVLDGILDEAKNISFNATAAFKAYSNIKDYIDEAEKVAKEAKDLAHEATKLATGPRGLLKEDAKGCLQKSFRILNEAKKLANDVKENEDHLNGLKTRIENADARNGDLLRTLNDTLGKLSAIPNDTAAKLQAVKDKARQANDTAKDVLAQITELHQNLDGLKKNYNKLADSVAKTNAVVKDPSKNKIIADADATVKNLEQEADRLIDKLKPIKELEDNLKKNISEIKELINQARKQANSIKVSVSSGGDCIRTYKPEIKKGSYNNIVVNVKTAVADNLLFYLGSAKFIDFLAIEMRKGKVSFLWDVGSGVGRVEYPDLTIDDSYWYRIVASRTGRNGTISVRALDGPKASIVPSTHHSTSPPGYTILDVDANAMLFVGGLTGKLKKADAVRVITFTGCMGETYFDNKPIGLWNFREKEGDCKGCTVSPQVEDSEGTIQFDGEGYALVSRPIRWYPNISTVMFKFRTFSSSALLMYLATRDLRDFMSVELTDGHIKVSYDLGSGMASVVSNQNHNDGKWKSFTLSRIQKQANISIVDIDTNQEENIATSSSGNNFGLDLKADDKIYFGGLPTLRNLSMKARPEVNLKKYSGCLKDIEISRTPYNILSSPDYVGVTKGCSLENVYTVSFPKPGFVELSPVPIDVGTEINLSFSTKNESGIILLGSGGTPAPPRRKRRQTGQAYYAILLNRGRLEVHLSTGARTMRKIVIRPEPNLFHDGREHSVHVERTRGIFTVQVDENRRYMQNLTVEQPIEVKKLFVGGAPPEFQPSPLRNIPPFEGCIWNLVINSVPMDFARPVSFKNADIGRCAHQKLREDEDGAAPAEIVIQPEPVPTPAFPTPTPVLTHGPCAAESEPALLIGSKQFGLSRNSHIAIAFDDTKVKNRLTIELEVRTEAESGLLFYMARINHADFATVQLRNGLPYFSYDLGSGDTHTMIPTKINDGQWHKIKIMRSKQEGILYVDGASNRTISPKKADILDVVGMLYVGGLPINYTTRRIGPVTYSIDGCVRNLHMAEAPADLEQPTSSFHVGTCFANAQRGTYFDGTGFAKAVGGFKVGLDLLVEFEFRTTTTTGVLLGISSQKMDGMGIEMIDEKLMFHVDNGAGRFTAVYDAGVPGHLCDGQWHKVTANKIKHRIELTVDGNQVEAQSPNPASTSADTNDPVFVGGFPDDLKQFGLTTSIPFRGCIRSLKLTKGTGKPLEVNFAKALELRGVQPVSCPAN
# UniProt P13473: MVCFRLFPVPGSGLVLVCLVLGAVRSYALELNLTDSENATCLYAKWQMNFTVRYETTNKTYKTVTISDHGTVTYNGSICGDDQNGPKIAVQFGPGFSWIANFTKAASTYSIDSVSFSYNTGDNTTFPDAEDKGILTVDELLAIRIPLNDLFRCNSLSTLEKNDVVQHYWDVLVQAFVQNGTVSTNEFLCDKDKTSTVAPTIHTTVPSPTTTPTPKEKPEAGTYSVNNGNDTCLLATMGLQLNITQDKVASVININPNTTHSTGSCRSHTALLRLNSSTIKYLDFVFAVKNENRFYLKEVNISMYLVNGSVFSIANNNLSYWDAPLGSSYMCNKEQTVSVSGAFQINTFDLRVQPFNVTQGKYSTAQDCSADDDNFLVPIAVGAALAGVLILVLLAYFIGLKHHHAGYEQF
# UniProt P17931, whole entry, looked up: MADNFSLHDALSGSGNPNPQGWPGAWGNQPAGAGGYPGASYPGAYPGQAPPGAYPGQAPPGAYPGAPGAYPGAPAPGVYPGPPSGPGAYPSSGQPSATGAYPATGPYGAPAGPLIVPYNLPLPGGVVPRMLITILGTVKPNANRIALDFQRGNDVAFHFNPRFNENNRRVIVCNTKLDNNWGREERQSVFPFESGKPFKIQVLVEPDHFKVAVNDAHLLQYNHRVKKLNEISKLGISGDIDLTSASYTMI
# UniProt Q96FQ7: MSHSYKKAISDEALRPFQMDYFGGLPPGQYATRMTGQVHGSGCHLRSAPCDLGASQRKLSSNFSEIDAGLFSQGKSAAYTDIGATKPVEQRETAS
# The list shows a part of the results.
# Compound: CCCc1cc(C)[nH]c(=O)c1CNC(=O)c1cc(-c2ccnc(N3CCN(C)CC3)c2)cc2c1cnn2C(C)C
# Test: log2 fold change, soluble protein after heating vs DMSO (PISA); higher = thermal stabilisation; K562 cells, 10 uM, 30 min; active = over 0.2 and 3.5 SD of the protein, either way, in both replicates (recomputed)
# Summary of the method: (§1)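 Aliquots of K562 cells (2×10^6 cells/mL) treated with 10 μM compound for 30 min were heated for 3 min over 48°C-58°C. After pooling and extraction in PBS with 0.5% NP-40 at 4°C, soluble protein from a 21,000xg, 90 min spin was quantified by TMTpro 16plex LC-MS/MS with channel sums equalised. Thermal stability is expressed against control samples, from duplicates, as a log2 fold change.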
row,Target,log2 fold change
1,LAMA5 (UniProt O15230),inactive: -0.135
2,LAMB2 (UniProt P55268),inactive: 0.119
3,L1TD1 (UniProt Q5T7N2),inactive: 0.473
4,LIPT1 (UniProt Q9Y234),inactive: 0.119
5,KXD1 (UniProt Q9BQD3),inactive: 0.072
6,LBH (UniProt Q53QV2),inactive: 0.033
7,LEPROT (UniProt O15243),inactive: -0.12
8,LIN52 (UniProt Q52LA3),inactive: 0.123
9,LGALSL (UniProt Q3ZCW2),inactive: 0.225
10,LLGL2 (UniProt Q6P1M3),inactive: -0.098
11,LAPTM4B (UniProt Q86VI4),inactive: -0.228
12,LMO4 (UniProt P61968),inactive: -0.162
13,LEPROTL1 isoform 2 (UniProt O95214),inactive: -0.053
14,LRRC14 (UniProt Q15048),inactive: -0.053
15,LOX (UniProt P28300),inactive: -0.269
16,LAMA2 (UniProt P24043),inactive: -0.138
17,LOR (UniProt P23490),inactive: -0.01
18,LRP1 (UniProt Q07954),inactive: -0.166
19,LAMP2 isoform 2 (UniProt P13473),inactive: -0.071
20,LGALS3 (UniProt P17931),inactive: -0.074

# Compound: CCN(CC)Cc1ccc2cc(COC(=O)Nc3ccc(C(=O)NO)cc3)ccc2c1 [givinostat]
# Test: as above
# Summary of the method: as §1
row,Target,log2 fold change
1,LAMA5 (UniProt O15230),inactive: 0.115
2,LDHD (UniProt Q86WU2),inactive: 0.149
3,KXD1 (UniProt Q9BQD3),inactive: 0.094
4,LEPROT (UniProt O15243),inactive: -0.467
5,LINC00526 (UniProt Q96FQ7),inactive: 0.031
6,LRRC42 (UniProt Q9Y546),inactive: 0.129
7,LLGL2 (UniProt Q6P1M3),inactive: 0.046
8,LAPTM4B (UniProt Q86VI4),inactive: 0.128
9,LRRC14 (UniProt Q15048),inactive: 0.247
10,LOX (UniProt P28300),inactive: 0.087
11,LAMA2 (UniProt P24043),inactive: 0.392
12,LAMP2 isoform 2 (UniProt P13473),inactive: -0.158
13,LHFPL2 (UniProt Q6ZUX7),inactive: -0.258
14,LDLRAP1 (UniProt Q5SW96),inactive: 0.284

# Compound: CCN(CCCOc1ccc2c(Nc3cc(CC(=O)Nc4cccc(F)c4)[nH]n3)ncnc2c1)CCOP(=O)(O)O [barasertib]
# Test: as above
# Summary of the method: as §1
row,Target,log2 fold change
1,KXD1 (UniProt Q9BQD3),inactive: -0.021
2,LRRC42 (UniProt Q9Y546),inactive: 0.069
3,LIN28A (UniProt Q9H9Z2),inactive: 0.052
4,LANCL3 (UniProt Q6ZV70),inactive: -0.027
5,LLGL2 (UniProt Q6P1M3),inactive: 0
6,LAPTM4B (UniProt Q86VI4),inactive: 0.002
7,LMO4 (UniProt P61968),inactive: 0.04
8,LEPROTL1 isoform 2 (UniProt O95214),inactive: -0.174
9,LRRC14 (UniProt Q15048),inactive: 0.167
10,LOX (UniProt P28300),inactive: -0.129
11,LAMA2 (UniProt P24043),inactive: 0.011
12,LMLN isoform 3 (UniProt Q96KR4),inactive: 0.068
13,LDHC (UniProt P07864),inactive: 0.244
14,LIMS1 (UniProt P48059),inactive: 0.042
15,LAPTM5 (UniProt Q13571),inactive: 0.102
16,LAMP2 isoform 2 (UniProt P13473),inactive: 0
17,LGALS3 (UniProt P17931),inactive: 0.17
18,LDLRAP1 (UniProt Q5SW96),inactive: 0.146

# Compound: CC[C@@H]1C(=O)N(C)c2cnc(Nc3ccc(C(=O)NC4CCN(C)CC4)cc3OC)nc2N1C1CCCC1
# Test: as above
# Summary of the method: as §1
row,Target,log2 fold change
1,LGALS3BP (UniProt Q08380),inactive: 0.166
2,KXD1 (UniProt Q9BQD3),inactive: -0.154
3,LEPROT (UniProt O15243),inactive: -0.052
4,LINC00526 (UniProt Q96FQ7),inactive: -0.1
5,LLGL2 (UniProt Q6P1M3),inactive: 0.046
6,LAPTM4B (UniProt Q86VI4),inactive: 0.063
7,LMO4 (UniProt P61968),inactive: -0.029
8,LEPROTL1 isoform 2 (UniProt O95214),inactive: -0.086
9,LRRC14 (UniProt Q15048),inactive: -0.004
10,LIG4 (UniProt P49917),inactive: -0.126
11,LOR (UniProt P23490),inactive: 0
12,LRP1 (UniProt Q07954),inactive: 0.111
13,LAMP2 isoform 2 (UniProt P13473),inactive: -0.137
14,LGALS3 (UniProt P17931),inactive: 0.197

# Compound: CC[C@@H]1C(=O)N(C)c2cnc(Nc3ccc(C(=O)N[C@H]4CC[C@H](N5CCN(CC6CC6)CC5)CC4)cc3OC)nc2N1C(C)C [volasertib]
# Test: as above
# Summary of the method: as §1
row,Target,log2 fold change
1,LGMN (UniProt Q99538),inactive: -0.422
2,LAMB2 (UniProt P55268),inactive: -0.011
3,KXD1 (UniProt Q9BQD3),inactive: -0.035
4,LBH (UniProt Q53QV2),inactive: -0.017
5,LLGL2 (UniProt Q6P1M3),inactive: 0.075
6,LMO4 (UniProt P61968),inactive: 0.032
7,LEPROTL1 isoform 2 (UniProt O95214),inactive: -0.151
8,LRRC14 (UniProt Q15048),inactive: -0.219
9,LMLN isoform 3 (UniProt Q96KR4),inactive: 0.32
10,LAMP2 isoform 2 (UniProt P13473),inactive: -0.081
11,LHFPL2 (UniProt Q6ZUX7),inactive: 0.084
12,LRP5 (UniProt O75197),inactive: -0.099
